Results are given in words; binding and its absence hold for the method and conditions named. Binding seen in cells or lysates may run through a third protein. Some binding calls cover weakened binding; strength is not graded here.
Target: NF-κB p65 (human (endogenous in A549)) (UniProt Q04206)
Test: co-IP; A549 cells stimulated for 30 min with thrombin (10 U/ml), with or without control siRNA or DCLK1 siRNA for 48 h beforehand; supernatants immunoprecipitated overnight at 4 °C with anti-NF-κB p65 antibody and protein A beads; blotted with anti-YAP and anti-p65

Chains of the proteins cited; added tags and fusions are not shown.
UniProt Q04206: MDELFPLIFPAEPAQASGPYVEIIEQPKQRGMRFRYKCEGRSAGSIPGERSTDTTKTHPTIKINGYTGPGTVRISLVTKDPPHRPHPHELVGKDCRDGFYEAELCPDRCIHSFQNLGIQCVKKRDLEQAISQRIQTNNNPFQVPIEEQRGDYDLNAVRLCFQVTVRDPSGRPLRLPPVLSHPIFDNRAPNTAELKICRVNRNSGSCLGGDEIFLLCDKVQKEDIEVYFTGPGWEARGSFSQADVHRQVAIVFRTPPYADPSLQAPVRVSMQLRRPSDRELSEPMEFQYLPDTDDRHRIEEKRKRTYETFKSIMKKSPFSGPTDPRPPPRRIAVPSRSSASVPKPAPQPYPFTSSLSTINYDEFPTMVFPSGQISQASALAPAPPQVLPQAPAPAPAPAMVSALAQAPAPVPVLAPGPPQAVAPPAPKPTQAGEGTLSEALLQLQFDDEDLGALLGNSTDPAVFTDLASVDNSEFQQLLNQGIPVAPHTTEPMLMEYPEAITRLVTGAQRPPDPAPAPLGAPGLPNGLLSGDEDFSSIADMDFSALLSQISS
UniProt P46937: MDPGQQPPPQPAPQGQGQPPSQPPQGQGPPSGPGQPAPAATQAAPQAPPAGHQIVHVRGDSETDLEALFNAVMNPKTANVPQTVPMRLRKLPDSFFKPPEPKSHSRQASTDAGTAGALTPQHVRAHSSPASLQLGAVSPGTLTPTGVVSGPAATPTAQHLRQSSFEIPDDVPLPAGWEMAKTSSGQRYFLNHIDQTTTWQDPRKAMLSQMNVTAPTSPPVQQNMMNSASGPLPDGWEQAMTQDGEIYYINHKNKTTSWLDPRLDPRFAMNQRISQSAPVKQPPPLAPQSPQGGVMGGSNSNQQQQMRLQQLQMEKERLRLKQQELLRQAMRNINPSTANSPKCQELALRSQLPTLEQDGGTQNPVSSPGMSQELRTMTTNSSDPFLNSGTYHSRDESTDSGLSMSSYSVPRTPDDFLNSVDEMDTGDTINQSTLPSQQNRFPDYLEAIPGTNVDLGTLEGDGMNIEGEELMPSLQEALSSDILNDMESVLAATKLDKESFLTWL

yes-associated protein 1 (YAP) (from UniProt P46937 1-504)
binding: binds
